Source: patent US20090203041A1, “BMP4 INHIBITORS” (priority 2006, published 2009)
Results are given in words; binding and its absence hold for the method and conditions named. Binding seen in cells or lysates may run through a third protein. Some entries that bind do so weakly or less than the wild type.

Assays:
[1] = molecular target: T1, endogenous BMP4 precursor protein (50 kDa precursor form, fetal mouse tissue) (mouse) (UniProt P21275); test: co-immunoprecipitation with anti-Gremlin antibody from fetal mouse lung lysate, anti-BMP4 immunoblot
T1 sequence (looked up): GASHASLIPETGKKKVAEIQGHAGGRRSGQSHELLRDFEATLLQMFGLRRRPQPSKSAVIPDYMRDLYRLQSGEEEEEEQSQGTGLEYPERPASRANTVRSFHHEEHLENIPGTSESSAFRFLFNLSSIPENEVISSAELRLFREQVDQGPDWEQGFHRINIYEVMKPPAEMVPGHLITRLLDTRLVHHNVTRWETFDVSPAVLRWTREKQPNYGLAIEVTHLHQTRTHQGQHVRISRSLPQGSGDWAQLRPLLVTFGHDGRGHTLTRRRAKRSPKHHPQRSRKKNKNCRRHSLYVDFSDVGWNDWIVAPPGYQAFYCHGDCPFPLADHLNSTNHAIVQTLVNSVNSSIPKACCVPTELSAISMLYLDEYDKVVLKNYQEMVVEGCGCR

[2] = molecular target: T1, endogenous BMP4 precursor protein (50 kDa precursor form, fetal mouse tissue) (mouse); test: co-immunoprecipitation, immunoblot (FIG. 1B legend)

B1: endogenous Gremlin protein (fetal mouse lung and kidney tissue lysates) (protein)
chain: KKKGSQGAIPPPDKAQHNDSEQTQSPPQPGSRTRGRGQGRGTAMPGEEVLESSQEALHVTERKYLKRDWCKTQPLKQTIHEEGCNSRTIINRFCYGQCNSFYIPRHIRKEEGSFQSCSFCKPKKFTTMMVTLNCPELQPPTKKKRVTRVKQCRCISIDLD
binding [1]: binds | binding [2]: binds
